Source: patent US7060792B2, “Protection against ischemia and reperfusion injury” (University of Kentucky Research Foundation, priority 2000, dated 2006)
Where “and” joins values, the source holds several entries; their conditions need not be identical. Equal values may be shown once. Not every detail of the peptide structures is certain; ends, links or a residue may be inferred. Square brackets hold non-standard residues; d marks the D form. Peptide text beside a SMILES is read from it.

Tests used:
[1] = system: isolated perfused rat heart; assay: Isolated perfused rat heart (modified Langendorff), 20 min zero-flow global ischemia and 120 min reperfusion, after tail vein pretreatment 24 h before; type: in vivo; details: for mean infarct size (percentage of myocardium): 2.0 mg/kg 24 h prior to 20 min ischemia and 120 min reperfusion, mean ±SEM, control 27±5%; for differences in recovery of developed pressure (DP) following initiation of reperfusion (FIG. 3, LVEDP): 2.0 mg/kg 24 h prior to 20 min ischemia; for differences in recovery of developed pressure (DP) following initiation of reperfusion (FIG. 3, LVEDP) / cardiac form of troponin I (cTn-1) values following 20 min ischemia: versus control; for Tn-1 levels in control rats compared with treated rats: pretreated 24 h prior to 20 min ischemia; for left ventricular functional recovery: at 5 min of reperfusion, control about 51%; for cardiac form of troponin I (cTn-1) values following 20 min ischemia: pretreatment 24 h prior, 2.0 mg/kg
[2] = system: brains of male mice (strain C57); assay: Cerebral ischemia for one hour, treatment post-ischemia, 24 h reperfusion, infarct in 2 mm brain sections; type: in vivo; details: for Damaged Cross Section Area 1 / Damaged Cross Section Area 2 / Damaged Cross Section Area 3 / Damaged Cross Section Area 4 / Average Infarct Volume: 4.0 mg/kg after one hour ischemia; for Damaged Cross Section Area 1 / Damaged Cross Section Area 2 / Damaged Cross Section Area 3 / Damaged Cross Section Area 4: 24 h reperfusion, individual animals; for Average Infarct Volume: mean of six animals, control 71.35; for Damaged % / Corrected Volume: per animal; for Corrected Volume: damaged cross section area multiplied by 2 (2 mm sections); for total damaged cross section area / total cross section area: quotient over all six animals
[3] = 4.0 mg/kg post-ischemia, 4 mg/kg
[4] = sum of the four damaged cross section areas per animal, 4.0 mg/kg post-ischemia, 4 mg/kg

## CSCC[C@H](NC(=O)[C@H](CC(C)C)NC(=O)[C@H](Cc1c[nH]cn1)NC(=O)[C@H](Cc1ccccc1)NC(=O)[C@@H](CCSC)NC(=O)[C@@H](N)Cc1ccc(O)cc1)C(=O)N[C@@H](CC(=O)O)C(N)=O [Deltorphin A, Tyr-D-Met-Phe-His-Leu-Met-Asp-NH2] (H-Y[dM]FHLMD-NH2)
[1]
  mean infarct size (percentage of myocardium): 12.95±3.3%
  differences in recovery of developed pressure (DP) following initiation of reperfusion (FIG. 3, LVEDP): remained lower
  left ventricular functional recovery: about 85%
  cardiac form of troponin I (cTn-1) values following 20 min ischemia: significantly decreased
[1]; 1 min reperfusion
  Tn-1 levels in control rats compared with treated rats: significantly higher
[1]; 60 min reperfusion
  Tn-1 levels in control rats compared with treated rats: significantly higher
[1]; 120 min reperfusion
  Tn-1 levels in control rats compared with treated rats: also higher
[2]
  Damaged Cross Section Area 1: 5.16 and 4.14 and 5.09 and 4.98 and 5.32 and 4.76
  Damaged Cross Section Area 2: 7.48 and 5.86 and 7.7 and 6.97 and 7.36 and 6.83
  Damaged Cross Section Area 3: 3.69 and 3.26 and 9.49 and 8.59 and 9.23 and 8.75
  Damaged Cross Section Area 4: 3.77 and 3.4 and 7.36 and 6.74 and 6.94 and 7.11
  Average Infarct Volume: 49.99 mm^3
  total damaged cross section area / total cross section area: 0.302
[2]; [3]
  Damaged %: 24.09% and 19.19% and 36.72% and 33.58% and 34.97% and 33.71%
  Corrected Volume: 40.2 and 33.32 and 59.28 and 54.56 and 57.7 and 54.9
[2]; [4]
  Total Damaged Cross Section Area: 20.1 and 16.66 and 29.64 and 27.28 and 28.85 and 27.45
[2]; sum over all six animals
  Total Damaged Cross Section Area: 149.98
  corrected volume in all six treated animals: 299.96

## CC[C@H](C)[C@H](NC(=O)[C@H](CCCCN)NC(=O)[C@H](CCCCN)NC(=O)[C@H](C)NC(=O)[C@H](CCC(=O)O)NC(=O)CNC(=O)[C@H](CO)NC(=O)[C@@H]1CCCN1C(=O)[C@H](Cc1ccc(O)cc1)NC(=O)CNC(=O)[C@H](Cc1ccccc1)NC(=O)[C@@H](C)NC(=O)[C@@H](N)Cc1ccc(O)cc1)C(=O)O [Dermorphin H, Tyr-D-Ala-Phe-Gly-Tyr-Pro-Ser-Gly-Glu-Ala-Lys-Lys-Ile] (H-Y[dA]FGYPSGEAKKI-OH; N-terminus and C-terminus assumed)
[1]
  mean infarct size (percentage of myocardium): 13.5±3.5%
  differences in recovery of developed pressure (DP) following initiation of reperfusion (FIG. 3, LVEDP): remained lower
  left ventricular functional recovery: about 51%
  cardiac form of troponin I (cTn-1) values following 20 min ischemia: significantly decreased
[1]; 1 min reperfusion
  Tn-1 levels in control rats compared with treated rats: higher
[1]; 120 min reperfusion
  Tn-1 levels in control rats compared with treated rats: higher
[2]
  Damaged Cross Section Area 1: 4.5 and 5.24 and 3.76 and 4.25 and 3.99 and 3.47
  Damaged Cross Section Area 2: 5.41 and 6.75 and 5.2 and 7.13 and 5.87 and 5.13
  Damaged Cross Section Area 3: 6.43 and 7.34 and 4.82 and 6.77 and 6.22 and 5.36
  Damaged Cross Section Area 4: 3.45 and 3.23 and 3.37 and 4.62 and 4.15 and 3.89
  Average Infarct Volume: 40.12 mm^3
  total damaged cross section area / total cross section area: 0.244
[2]; [3]
  Damaged %: 23.33% and 28.05% and 20.99% and 27.49% and 24.83% and 21.94%
  Corrected Volume: 39.58 and 45.12 and 34.3 and 45.54 and 40.46 and 35.7
[2]; [4]
  Total Damaged Cross Section Area: 19.79 and 22.56 and 17.15 and 22.77 and 20.23 and 17.85
[2]; sum over all six animals
  Total Damaged Cross Section Area: 120.35
  corrected volume in all six treated animals: 240.7
